Assay results reported in the supplement of paper PMC10849652.
This is one part of the list.

Chains of the proteins cited; added tags and fusions are not shown. Lines headed by an entry give the natural chain unless they say otherwise; changes in a name come on top.
UniProt Q9BWU0: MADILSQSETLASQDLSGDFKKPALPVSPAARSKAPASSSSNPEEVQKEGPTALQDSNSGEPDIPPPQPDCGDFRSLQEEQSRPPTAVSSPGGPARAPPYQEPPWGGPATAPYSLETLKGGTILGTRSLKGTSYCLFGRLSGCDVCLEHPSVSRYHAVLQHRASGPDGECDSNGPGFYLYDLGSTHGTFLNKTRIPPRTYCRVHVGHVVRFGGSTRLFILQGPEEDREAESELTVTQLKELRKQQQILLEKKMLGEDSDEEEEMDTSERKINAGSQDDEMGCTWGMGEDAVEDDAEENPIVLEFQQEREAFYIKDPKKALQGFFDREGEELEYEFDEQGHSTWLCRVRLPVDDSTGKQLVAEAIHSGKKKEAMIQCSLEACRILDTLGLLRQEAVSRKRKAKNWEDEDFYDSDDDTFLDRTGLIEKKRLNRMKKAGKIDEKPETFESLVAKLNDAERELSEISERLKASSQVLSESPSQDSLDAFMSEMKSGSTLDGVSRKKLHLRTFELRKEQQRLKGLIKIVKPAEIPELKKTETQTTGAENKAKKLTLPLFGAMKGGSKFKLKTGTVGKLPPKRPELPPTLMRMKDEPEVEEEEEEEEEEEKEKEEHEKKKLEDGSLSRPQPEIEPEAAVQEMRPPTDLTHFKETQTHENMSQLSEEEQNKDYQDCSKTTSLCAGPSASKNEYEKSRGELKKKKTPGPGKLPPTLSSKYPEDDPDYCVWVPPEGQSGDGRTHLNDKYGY
UniProt P41440: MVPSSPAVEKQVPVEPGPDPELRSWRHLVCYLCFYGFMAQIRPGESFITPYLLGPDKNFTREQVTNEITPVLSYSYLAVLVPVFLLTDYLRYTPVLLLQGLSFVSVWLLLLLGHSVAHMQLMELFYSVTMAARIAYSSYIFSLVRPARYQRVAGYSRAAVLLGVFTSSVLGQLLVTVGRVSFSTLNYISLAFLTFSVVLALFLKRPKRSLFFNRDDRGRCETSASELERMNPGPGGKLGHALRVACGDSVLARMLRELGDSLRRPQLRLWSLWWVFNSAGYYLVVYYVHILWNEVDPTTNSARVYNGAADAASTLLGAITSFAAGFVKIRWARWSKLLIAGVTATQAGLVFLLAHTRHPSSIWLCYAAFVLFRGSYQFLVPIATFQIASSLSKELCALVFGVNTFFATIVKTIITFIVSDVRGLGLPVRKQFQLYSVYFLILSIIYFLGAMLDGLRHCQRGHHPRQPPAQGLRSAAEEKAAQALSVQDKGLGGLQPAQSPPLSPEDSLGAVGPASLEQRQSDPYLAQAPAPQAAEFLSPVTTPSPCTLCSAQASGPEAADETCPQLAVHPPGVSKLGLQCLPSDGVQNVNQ
UniProt Q96EP9: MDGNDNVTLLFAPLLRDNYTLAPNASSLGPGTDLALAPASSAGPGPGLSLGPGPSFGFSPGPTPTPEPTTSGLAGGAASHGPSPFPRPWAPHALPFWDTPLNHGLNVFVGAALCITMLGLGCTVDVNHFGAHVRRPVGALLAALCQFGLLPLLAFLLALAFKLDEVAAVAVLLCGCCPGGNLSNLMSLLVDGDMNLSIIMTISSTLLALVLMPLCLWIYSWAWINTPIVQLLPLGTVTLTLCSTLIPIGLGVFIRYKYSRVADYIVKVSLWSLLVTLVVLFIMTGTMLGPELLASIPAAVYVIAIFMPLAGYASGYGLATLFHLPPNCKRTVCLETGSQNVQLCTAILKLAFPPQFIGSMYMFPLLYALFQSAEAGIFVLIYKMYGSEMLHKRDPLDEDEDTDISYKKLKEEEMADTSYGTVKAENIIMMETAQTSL
UniProt L0R6Q1: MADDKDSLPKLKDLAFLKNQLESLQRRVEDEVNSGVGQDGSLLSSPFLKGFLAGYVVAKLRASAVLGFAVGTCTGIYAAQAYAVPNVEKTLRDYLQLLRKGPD
UniProt Q8WUX1, whole entry, looked up: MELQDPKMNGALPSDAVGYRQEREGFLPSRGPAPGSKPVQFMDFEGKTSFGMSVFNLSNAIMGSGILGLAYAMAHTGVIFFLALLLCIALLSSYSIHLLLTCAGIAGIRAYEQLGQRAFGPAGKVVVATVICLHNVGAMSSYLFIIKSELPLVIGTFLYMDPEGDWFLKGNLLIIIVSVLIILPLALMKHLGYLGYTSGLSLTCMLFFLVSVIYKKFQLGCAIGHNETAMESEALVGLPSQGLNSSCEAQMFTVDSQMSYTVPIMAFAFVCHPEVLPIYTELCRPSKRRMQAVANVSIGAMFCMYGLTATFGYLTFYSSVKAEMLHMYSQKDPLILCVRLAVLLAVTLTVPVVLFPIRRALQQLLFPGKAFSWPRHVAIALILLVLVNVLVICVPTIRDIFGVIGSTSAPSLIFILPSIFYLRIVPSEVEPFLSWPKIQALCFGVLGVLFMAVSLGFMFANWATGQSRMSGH
UniProt Q9H1U9: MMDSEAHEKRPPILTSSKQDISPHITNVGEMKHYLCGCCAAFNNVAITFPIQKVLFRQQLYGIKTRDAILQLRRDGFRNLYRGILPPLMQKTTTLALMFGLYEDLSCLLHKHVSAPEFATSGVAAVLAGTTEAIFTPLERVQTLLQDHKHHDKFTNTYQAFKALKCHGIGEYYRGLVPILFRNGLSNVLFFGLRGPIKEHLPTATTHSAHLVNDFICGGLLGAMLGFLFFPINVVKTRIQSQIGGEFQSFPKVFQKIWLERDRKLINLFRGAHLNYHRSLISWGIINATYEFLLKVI
UniProt Q9H936: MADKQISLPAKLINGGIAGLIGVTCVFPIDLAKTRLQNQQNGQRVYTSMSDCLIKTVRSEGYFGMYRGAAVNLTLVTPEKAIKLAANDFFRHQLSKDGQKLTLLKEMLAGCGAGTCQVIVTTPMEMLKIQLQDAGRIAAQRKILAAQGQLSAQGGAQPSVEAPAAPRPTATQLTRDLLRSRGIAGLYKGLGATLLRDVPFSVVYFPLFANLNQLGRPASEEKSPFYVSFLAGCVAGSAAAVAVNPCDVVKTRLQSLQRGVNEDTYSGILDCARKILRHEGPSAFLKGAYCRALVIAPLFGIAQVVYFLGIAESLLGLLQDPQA
UniProt P30825: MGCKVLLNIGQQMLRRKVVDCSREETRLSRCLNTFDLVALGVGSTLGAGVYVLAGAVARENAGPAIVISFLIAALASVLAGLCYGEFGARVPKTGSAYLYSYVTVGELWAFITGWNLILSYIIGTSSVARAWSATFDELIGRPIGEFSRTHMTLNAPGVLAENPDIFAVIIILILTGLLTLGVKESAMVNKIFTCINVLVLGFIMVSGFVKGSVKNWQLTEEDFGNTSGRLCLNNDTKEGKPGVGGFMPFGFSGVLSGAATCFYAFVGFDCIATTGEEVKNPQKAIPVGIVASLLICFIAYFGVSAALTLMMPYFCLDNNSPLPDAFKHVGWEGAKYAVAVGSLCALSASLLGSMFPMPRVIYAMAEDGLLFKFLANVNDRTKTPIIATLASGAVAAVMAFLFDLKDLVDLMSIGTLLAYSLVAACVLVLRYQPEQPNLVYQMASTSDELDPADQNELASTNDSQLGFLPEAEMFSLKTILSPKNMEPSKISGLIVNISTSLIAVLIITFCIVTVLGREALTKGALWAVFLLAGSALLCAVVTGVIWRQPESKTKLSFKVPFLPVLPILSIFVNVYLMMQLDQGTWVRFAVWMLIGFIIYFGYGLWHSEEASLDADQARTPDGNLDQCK
UniProt Q9UPY5: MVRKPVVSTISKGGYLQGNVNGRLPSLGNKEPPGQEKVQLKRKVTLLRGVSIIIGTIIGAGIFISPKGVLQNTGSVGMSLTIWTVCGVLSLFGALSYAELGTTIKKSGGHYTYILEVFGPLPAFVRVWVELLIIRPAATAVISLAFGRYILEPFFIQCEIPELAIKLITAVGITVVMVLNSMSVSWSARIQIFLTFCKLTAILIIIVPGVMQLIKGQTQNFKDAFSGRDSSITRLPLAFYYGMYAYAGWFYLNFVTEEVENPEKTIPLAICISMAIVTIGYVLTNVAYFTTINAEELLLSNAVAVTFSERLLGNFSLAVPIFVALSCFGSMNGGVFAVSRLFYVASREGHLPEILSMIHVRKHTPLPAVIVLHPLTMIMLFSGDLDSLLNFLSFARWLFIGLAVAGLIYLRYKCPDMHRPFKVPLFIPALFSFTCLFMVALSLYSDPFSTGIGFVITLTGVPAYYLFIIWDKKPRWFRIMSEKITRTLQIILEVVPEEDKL
UniProt Q6XR72: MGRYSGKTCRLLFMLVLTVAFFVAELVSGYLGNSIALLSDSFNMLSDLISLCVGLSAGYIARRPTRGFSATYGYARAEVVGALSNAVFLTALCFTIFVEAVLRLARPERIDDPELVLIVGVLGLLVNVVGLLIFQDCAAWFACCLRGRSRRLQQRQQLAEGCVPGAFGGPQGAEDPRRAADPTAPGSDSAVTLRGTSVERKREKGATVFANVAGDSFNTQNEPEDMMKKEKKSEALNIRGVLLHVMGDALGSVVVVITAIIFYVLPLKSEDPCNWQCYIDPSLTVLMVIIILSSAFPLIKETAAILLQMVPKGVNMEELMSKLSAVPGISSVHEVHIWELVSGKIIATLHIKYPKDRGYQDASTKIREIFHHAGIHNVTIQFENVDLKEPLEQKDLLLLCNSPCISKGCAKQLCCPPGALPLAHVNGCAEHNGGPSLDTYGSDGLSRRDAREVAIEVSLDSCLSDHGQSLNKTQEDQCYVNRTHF
UniProt Q9ULF5: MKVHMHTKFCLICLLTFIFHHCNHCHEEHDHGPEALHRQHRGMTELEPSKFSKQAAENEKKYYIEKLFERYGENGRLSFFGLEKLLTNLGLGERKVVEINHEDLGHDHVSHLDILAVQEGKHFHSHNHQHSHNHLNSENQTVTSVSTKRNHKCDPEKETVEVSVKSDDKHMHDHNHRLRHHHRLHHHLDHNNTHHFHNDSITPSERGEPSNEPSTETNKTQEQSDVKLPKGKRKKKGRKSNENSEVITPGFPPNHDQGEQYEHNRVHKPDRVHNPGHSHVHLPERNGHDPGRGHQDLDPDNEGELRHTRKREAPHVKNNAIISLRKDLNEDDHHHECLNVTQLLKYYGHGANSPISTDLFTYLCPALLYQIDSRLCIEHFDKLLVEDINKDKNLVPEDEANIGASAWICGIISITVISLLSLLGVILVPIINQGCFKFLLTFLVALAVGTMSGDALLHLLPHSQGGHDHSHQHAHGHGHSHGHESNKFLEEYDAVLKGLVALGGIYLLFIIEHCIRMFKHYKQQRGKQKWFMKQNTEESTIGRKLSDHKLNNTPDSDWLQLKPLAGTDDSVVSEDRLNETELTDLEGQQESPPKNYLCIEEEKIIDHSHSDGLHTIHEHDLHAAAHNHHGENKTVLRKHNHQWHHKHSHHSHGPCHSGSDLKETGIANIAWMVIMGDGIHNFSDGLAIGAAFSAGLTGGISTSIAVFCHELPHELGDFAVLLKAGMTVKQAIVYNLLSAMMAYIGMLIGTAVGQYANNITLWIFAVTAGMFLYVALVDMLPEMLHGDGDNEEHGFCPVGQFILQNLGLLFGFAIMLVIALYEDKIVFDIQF
UniProt Q13433: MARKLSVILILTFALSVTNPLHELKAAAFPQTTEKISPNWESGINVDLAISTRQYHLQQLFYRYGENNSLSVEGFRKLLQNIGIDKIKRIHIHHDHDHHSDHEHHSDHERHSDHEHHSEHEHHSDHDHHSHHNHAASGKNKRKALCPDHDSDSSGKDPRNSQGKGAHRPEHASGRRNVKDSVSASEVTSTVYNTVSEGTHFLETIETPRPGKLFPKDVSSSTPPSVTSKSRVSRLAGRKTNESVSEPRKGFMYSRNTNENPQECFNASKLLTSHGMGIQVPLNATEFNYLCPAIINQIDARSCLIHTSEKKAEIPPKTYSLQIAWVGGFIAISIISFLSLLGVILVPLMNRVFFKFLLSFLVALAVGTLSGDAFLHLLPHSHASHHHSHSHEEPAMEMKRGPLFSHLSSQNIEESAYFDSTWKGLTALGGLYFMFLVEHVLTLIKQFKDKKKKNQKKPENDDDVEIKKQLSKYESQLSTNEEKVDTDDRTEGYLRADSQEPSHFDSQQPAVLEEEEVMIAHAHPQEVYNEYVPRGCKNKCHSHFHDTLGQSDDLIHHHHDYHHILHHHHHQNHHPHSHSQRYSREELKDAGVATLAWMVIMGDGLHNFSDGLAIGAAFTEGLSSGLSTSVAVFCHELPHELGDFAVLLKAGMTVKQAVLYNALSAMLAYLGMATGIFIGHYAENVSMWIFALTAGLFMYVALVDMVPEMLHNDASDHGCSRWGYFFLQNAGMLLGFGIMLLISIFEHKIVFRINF
UniProt P05141: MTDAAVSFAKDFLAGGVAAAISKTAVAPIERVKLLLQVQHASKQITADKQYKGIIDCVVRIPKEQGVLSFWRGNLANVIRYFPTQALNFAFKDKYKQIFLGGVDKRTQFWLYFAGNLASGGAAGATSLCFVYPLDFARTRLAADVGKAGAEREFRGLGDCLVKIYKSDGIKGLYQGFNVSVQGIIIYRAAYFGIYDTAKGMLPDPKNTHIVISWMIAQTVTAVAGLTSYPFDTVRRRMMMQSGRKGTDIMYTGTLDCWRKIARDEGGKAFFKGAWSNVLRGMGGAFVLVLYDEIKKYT

Legend:
Test in all cases: log2 fold change, soluble protein after heating vs DMSO (PISA); higher = thermal stabilisation; K562 cells, 10 uM, 30 min; active = over 0.2 and 3.5 SD of the protein, either way, in both replicates (recomputed)
[1] = compound: NC(=O)Nc1cc(-c2cccc(F)c2)sc1C(=O)N[C@H]1CCCNC1
In short: (§1)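 Thermal stability values are relative to control samples and come from duplicates. They are expressed as log2 fold changes. For measurement, K562 cells (2×10^6 cells/mL) received 10 μM compound for 30 min, and aliquots were heated for 3 min over 48°C-58°C, pooled, and extracted at 4°C in PBS with 0.5% NP-40. Soluble protein, the supernatant after 21,000xg for 90 min, was quantified by TMTpro 16plex LC-MS/MS with equalised channel sums.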

[2] = compound: NC(=O)c1cnc(N[C@@H]2CCCC[C@@H]2N)nc1Nc1cccc(-n2nccn2)c1
In short: as §1

[3] = compound: NC1(c2ccc(-c3nc4ccn5c(=O)[nH]nc5c4cc3-c3ccccc3)cc2)CCC1
In short: as §1

[4] = compound: NCC(=O)Nc1ccc(-n2nc(C(F)(F)F)cc2-c2ccc3c(ccc4ccccc43)c2)cc1
In short: as §1

entinostat = compound: Nc1ccccc1NC(=O)c1ccc(CNC(=O)OCc2cccnc2)cc1 [entinostat]
In short: as §1

vorinostat = compound: O=C(CCCCCCC(=O)Nc1ccccc1)NO [vorinostat]
In short: as §1

citarinostat = compound: O=C(CCCCCCNC(=O)c1cnc(N(c2ccccc2)c2ccccc2Cl)nc1)NO [citarinostat]
In short: as §1

silmitasertib = compound: O=C(O)c1ccc2c(c1)nc(Nc1cccc(Cl)c1)c1ccncc12 [silmitasertib]
In short: as §1

[5] = compound: O=C1NC(=O)C(c2cnc3ccccn23)=C1c1cn2c3c(cc(F)cc13)CN(C(=O)N1CCCCC1)CC2
In short: as §1

[6] = compound: c1cc(OCCN2CCCCC2)cc(-c2n[nH]c3ccc(-c4nnc[nH]4)cc23)c1
In short: as §1

Target | log2 fold change [1] | log2 fold change [2] | log2 fold change [3] | log2 fold change [4] | log2 fold change (entinostat) | log2 fold change (vorinostat) | log2 fold change (citarinostat) | log2 fold change (silmitasertib) | log2 fold change [5] | log2 fold change [6]
SLC16A1 (UniProt P53985) | inactive: -0.189 | inactive: -0.021 | inactive: 0.12 | inactive: -0.053 | inactive: -0.132 | inactive: 0.019 | inactive: -0.221 | inactive: 0.008 | inactive: 0.026 | inactive: -0.149
SLC4A1AP (UniProt Q9BWU0) | inactive: -0.032 | inactive: -0.058 | inactive: -0.051 | inactive: -0.075 | inactive: -0.027 | inactive: -0.01 | inactive: 0.059 | inactive: 0.055 | inactive: -0.03 | inactive: -0.031
SLC19A1 (UniProt P41440) | inactive: 0.1 | inactive: 0.157 | inactive: 0.036 | inactive: 0.007 | inactive: -0.017 | inactive: 0.057 | inactive: 0.02 | inactive: -0.013 | inactive: 0.207 | inactive: -0.033
SLC10A4 (UniProt Q96EP9) | inactive: -0.072 | inactive: -0.262 | inactive: -0.066 | inactive: -0.342 | inactive: 0.011 | inactive: -0.018 | inactive: -0.109 | inactive: 0.22 | inactive: -0.003 | inactive: -0.069
SLC45A4 isoform 3 (UniProt Q5BKX6) | inactive: -0.049 | inactive: -0.08 | inactive: 0.089 | inactive: 0.195 | inactive: -0.049 | inactive: -0.115 | inactive: 0.111 | inactive: -0.016 | inactive: -0.134 | inactive: -0.186
SLC43A3 isoform 2 (UniProt Q8NBI5) | inactive: -0.043 | inactive: 0.06 | inactive: 0.11 | inactive: 0.02 | inactive: -0.059 | inactive: -0.075 | inactive: -0.152 | inactive: -0.029 | inactive: -0.007 | inactive: -0.004
SLC25A3 isoform 2 (UniProt Q00325) | inactive: -0.03 | inactive: -0.004 | inactive: 0.037 | inactive: 0.035 | inactive: -0.005 | inactive: -0.028 | inactive: -0.011 | inactive: -0.007 | inactive: -0.021 | inactive: -0.039
SLC25A24 (UniProt Q6NUK1) | inactive: -0.013 | inactive: 0.021 | inactive: -0.01 | inactive: -0.014 | inactive: -0.039 | inactive: -0.036 | inactive: 0.005 | inactive: 0.01 | inactive: -0.056 | inactive: 0.007
SLC35A4 (UniProt L0R6Q1) | inactive: -0.006 | inactive: -0.07 | inactive: -0.027 | inactive: 0.021 | inactive: 0.09 | inactive: -0.082 | inactive: 0.021 | inactive: 0.064 | inactive: -0.166 | inactive: -0.038
SLC38A5 (UniProt Q8WUX1) | inactive: -0.1 | inactive: 0.004 | inactive: 0.125 | inactive: 0.015 | inactive: -0.026 | inactive: 0.044 | inactive: 0.023 | inactive: -0.009 | inactive: 0.028 | inactive: -0.055
SLC20A2 (UniProt Q08357) | inactive: -0.032 | inactive: 0.002 | inactive: -0.03 | inactive: 0.047 | inactive: -0.061 | inactive: -0.083 | inactive: -0.033 | inactive: 0 | inactive: -0.075 | inactive: -0.121
SLC25A51 (UniProt Q9H1U9) | inactive: -0.013 | inactive: -0.009 | inactive: -0.024 | inactive: -0.03 | inactive: -0.039 | inactive: -0.093 | inactive: 0.061 | inactive: 0.01 | inactive: -0.021 | inactive: -0.05
SLC33A1 (UniProt O00400) | inactive: -0.022 | inactive: 0.004 | inactive: -0.023 | inactive: 0.1 | inactive: 0.015 | inactive: -0.047 | inactive: 0.111 | inactive: 0 | inactive: 0.008 | inactive: -0.088
SLC25A22 (UniProt Q9H936) | inactive: -0.02 | inactive: 0 | inactive: 0.011 | inactive: -0.055 | inactive: -0.012 | inactive: -0.064 | inactive: 0.021 | inactive: 0.006 | inactive: -0.05 | inactive: -0.049
SLC7A1 (UniProt P30825) | inactive: -0.092 | inactive: 0.039 | inactive: -0.049 | inactive: -0.058 | inactive: -0.039 | inactive: -0.037 | inactive: -0.036 | inactive: 0.015 | inactive: -0.001 | inactive: -0.085
SLC39A8 (UniProt Q9C0K1) | inactive: -0.053 | inactive: 0.014 | inactive: -0.155 | inactive: -0.01 | inactive: 0.043 | inactive: 0 | inactive: -0.027 | inactive: 0.051 | inactive: 0.03 | inactive: -0.073
SLC3A2 isoform 3 (UniProt P08195) | inactive: 0.015 | inactive: 0.097 | inactive: 0.086 | inactive: 0.09 | inactive: -0.021 | inactive: 0.003 | inactive: 0.038 | inactive: -0.076 | inactive: -0.025 | inactive: -0.017
SLC25A42 (UniProt Q86VD7) | inactive: 0.121 | inactive: 0.021 | inactive: -0.015 | inactive: 0.05 | inactive: -0.027 | inactive: -0.102 | inactive: -0.015 | inactive: -0.033 | inactive: -0.034 | inactive: -0.046
SLC7A11 (UniProt Q9UPY5) | inactive: -0.091 | inactive: 0.01 | inactive: 0.022 | inactive: -0.025 | inactive: -0.009 | inactive: -0.011 | inactive: 0.041 | inactive: -0.021 | inactive: 0.158 | inactive: 0.031
SLC29A1 isoform 2 (UniProt Q99808) | inactive: -0.082 | inactive: 0.094 | inactive: 0.094 | inactive: 0.078 | inactive: -0.051 | inactive: 0.048 | inactive: 0.023 | inactive: 0.023 | inactive: 0.006 | inactive: -0.067
SLC30A10 (UniProt Q6XR72) | inactive: -0.035 | inactive: 0.088 | inactive: 0.084 | inactive: 0.133 | inactive: -0.003 | inactive: -0.215 | inactive: -0.008 | inactive: -0.05 | inactive: -0.005 | active: -0.432
SLC12A6 isoform 2 (UniProt Q9UHW9) | inactive: -0.025 | inactive: 0.034 | inactive: -0.087 | inactive: -0.017 | inactive: 0.006 | inactive: 0.063 | inactive: 0.053 | inactive: -0.011 | inactive: 0.011 | inactive: -0.08
SLC39A10 (UniProt Q9ULF5) | inactive: -0.087 | inactive: 0.046 | inactive: 0.113 | inactive: 0.022 | inactive: -0.065 | inactive: -0.005 | inactive: -0.021 | inactive: -0.058 | inactive: -0.004 | inactive: -0.054
SLC25A11 (UniProt Q02978) | inactive: 0.021 | inactive: 0.02 | inactive: 0.016 | inactive: -0.001 | inactive: -0.002 | inactive: -0.017 | inactive: 0.028 | inactive: 0.038 | inactive: -0.028 | inactive: -0.038
SLC39A6 (UniProt Q13433) | inactive: -0.131 | inactive: 0.03 | inactive: 0.124 | inactive: -0.029 | inactive: -0.118 | inactive: 0.027 | inactive: 0.019 | inactive: -0.03 | inactive: -0.033 | inactive: -0.077
SLC35B2 (UniProt Q8TB61) | inactive: -0.023 | inactive: -0.047 | inactive: -0.027 | inactive: 0.013 | inactive: -0.019 | inactive: -0.002 | inactive: 0.016 | inactive: -0.011 | inactive: -0.034 | inactive: 0.03
SLC25A5 (UniProt P05141) | inactive: 0.024 | inactive: -0.004 | inactive: 0.111 | inactive: 0.019 | inactive: -0.04 | inactive: 0.001 | inactive: -0.04 | inactive: -0.013 | inactive: -0.044 | inactive: 0.012

Some of the entries so far, as a markdown table:

| Target | log2 fold change [1] | log2 fold change [2] | log2 fold change [3] | log2 fold change [4] | log2 fold change (entinostat) | log2 fold change (vorinostat) | log2 fold change (citarinostat) | log2 fold change (silmitasertib) | log2 fold change [5] | log2 fold change [6] |
| --- | --- | --- | --- | --- | --- | --- | --- | --- | --- | --- |
| SLC39A8 (UniProt Q9C0K1) | inactive: -0.053 | inactive: 0.014 | inactive: -0.155 | inactive: -0.01 | inactive: 0.043 | inactive: 0 | inactive: -0.027 | inactive: 0.051 | inactive: 0.03 | inactive: -0.073 |
| SLC39A10 (UniProt Q9ULF5) | inactive: -0.087 | inactive: 0.046 | inactive: 0.113 | inactive: 0.022 | inactive: -0.065 | inactive: -0.005 | inactive: -0.021 | inactive: -0.058 | inactive: -0.004 | inactive: -0.054 |
